Laboratory results: patent US20220074941A1, “HSP90 COMBINATION THERAPY” (Sloan-Kettering Institute for Cancer Research, priority 2011, published 2022)

How the values were obtained:
[1] = tested on: Hsp90 complexes in K562 cell extract; assay: Nano-LC-MS/MS of PU-beads pull-downs; assay type: binding; conditions: protein identified in PU-beads pull-down of K562 extract, QSTAR-Elite QTof MS
Procedure, shortened: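 Lysates pre-cleared overnight at 4 °C with control beads, then pulled down with PU-beads or control beads; eluted proteins (2% SDS boil) gel-separated and analysed by nano LC-MS/MS on a QTof. Mascot identification (p<0.05), spectral counts and sequence coverage evaluated in Scaffold.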

[2] = tested on: Hsp90 complexes in Mia-PaCa-2 cell extract; assay: Nano-LC-MS/MS of PU-beads pull-downs; assay type: binding, human; conditions: protein identified in PU-beads pull-down of Mia-Paca 2 extract; QSTAR-Elite QTof MS
Procedure, shortened: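 Lysates pre-cleared overnight at 4 °C with control beads underwent PU-bead pull-down; bound proteins were SDS-eluted, gel-separated, digested and analyzed by nano-LC-MS/MS on a QTof. Identifications used significance p<0.05, 0.4 Da tolerances and one missed cleavage; unique peptide (spectral) counts and sequence coverage were reported.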

Row | Molecule | Number of Assigned Spectra, K562 Prep 1 [1] | Number of Assigned Spectra, K562 Prep 2 [1] | Number of Assigned Spectra, Mia-Paca 2 [2]
1 | STAT5B (protein) MAGWIQAQQLQGDALRQMQVLYGQHFPIEVRHYLAQWIESQPWDAIDLDNPQDRAQATQLLEGLVQELQKKAEHQVGEDGFLLKIKLGHYATQLQKTYDRCPLELVRCIRHILYNEQRLVREANNCSSPAGILVDAMSQKHLQINQTFEELRLVTQDTENELKKLQQTQEYFIIQYQESLRIQAQFAQLAQLSPQERLSRETALQQKQVSLEAWLQREAQTLQQYRVELAEKHQKTLQLLRKQQTIILDDELIQWKRRQQLAGNGGPPEGSLDVLQSWCEKLAEIIWQNRQQIRRAEHLCQQLPIPGPVEEMLAEVNATITDIISALVTSTFIIEKQPPQVLKTQTKFAATVRLLVGGKLNVHMNPPQVKATIISEQQAKSLLKNENTRNECSGEILNNCCVMEYHQATGTLSAHFRNMSLKRIKRADRRGAESVTEEKFTVLFESQFSVGSNELVFQVKTLSLPVVVIVHGSQDHNATATVLWDNAFAEPGRVPFAVPDKVLWPQLCEALNMKFKAEVQSNRGLTKENLVFLAQKLFNNSSSHLEDYSGLSVSWSQFNRENLPGWNYTFWQWFDGVMEVLKKHHKPHWNDGAILGFVNKQQAHDLLINKPDGTFLLRFSDSEIGGITIAWKFDSPERNLWNLKPFTTRDFSIRSLADRLGDLSYLIYVFPDRPKDEVFSKYYTPVLAKAVDGYVKPQIKQVVPEFVNASADAGGSSATYMDQAPSPAVCPQAPYNMYPQNPDHVLDQDGEFDLDETMDVARHVEELLRRPMDSLDSRLSPPAGLFTSARGSLS | 10 | 5 | 0
2 | BTK (protein) AAVILESIFLKRSQQKKKTSPLNFKKRLFLLTVHKLSYYEYDFERGRRGSKKGSIDVEKITCVETVVPEKNPPPERQIPRRGEESSEMEQISIIERFPYPFQVVYDEGPLYVFSPTEELRKRWIHQLKNVIRYNSDLVQKYHPCFWIDGQYLCCSQTAKNAMGCQILENRNGSLKPGSSHRKTKKPLPPTPEEDQILKKPLPPEPAAAPVSTSELKKVVALYDYMPMNANDLQLRKGDEYFILEESNLPWWRARDKNGQEGYIPSNYVTEAEDSIEMYEWYSKHMTRSQAEQLLKQEGKEGGFIVRDSSKAGKYTVSVFAKSTGDPQGVIRHYVVCSTPQSQYYLAEKHLFSTIPELINYHQHNSAGLISRLKYPVSQQNKNAPSTAGLGYGSWEIDPKDLTFLKELGTGQFGVVKYGKWRGQYDVAIKMIKEGSMSEDEFIEEAKVMMNLSHEKLVQLYGVCTKQRPIFIITEYMANGCLLNYLREMRHRFQTQQLLEMCKDVCEAMEYLESKQFLHRDLAARNCLVNDQGVVKVSDFGLSRYVLDDEYTSSVGSKFPVRWSPPEVLMYSKFSSKSDIWAFGVLMWEIYSLGKMPYERFTNSETAEHIAQGLRLYRPHLASEKVYTIMYSCWHEKADERPTFKILLSNILDVMDEES | 11 | 8 | 0
3 | PDCD4 (protein, UniProt Q53EL6 1-469, looked up) Programmed cell death protein …: MDVENEQILNVNPADPDNLSDSLFSGDEENAGTEEIKNEINGNWISASSINEARINAKAKRRLRKNSSRDSGRGDSVSDSGSDALRSGLTVPTSPKGRLLDRRSRSGKGRGLPKKGGAGGKGVWGTPGQVYDVEEVDVKDPNYDDDQENCVYETVVLPLDERAFEKTLTPIIQEYFEHGDTNEVAEMLRDLNLGEMKSGVPVLAVSLALEGKASHREMTSKLLSDLCGTVMSTTDVEKSFDKLLKDLPELALDTPRAPQLVGQFIARAVGDGILCNTYIDSYKGTVDCVQARAALDKATVLLSMSKGGKRKDSVWGSGGGQQSVNHLVKEIDMLLKEYLLSGDISEAEHCLKELEVPHFHHELVYEAIIMVLESTGESTFKMILDLLKSLWKSSTITVDQMKRGYERIYNEIPDINLDVPHSYSVLERFVEECFQAGIISKQLRDLCPSRGRKRFVSEGDGGRLKPESY | 2 | 5 | 3
4 | TELO2 (protein, UniProt Q9Y4R8 1-837, looked up) Telomere length regulation …: MEPAPSEVRLAVREAIHALSSSEDGGHIFCTLESLKRYLGEMEPPALPREKEEFASAHFSPVLRCLASRLSPAWLELLPHGRLEELWASFFLEGPADQAFLVLMETIEGAAGPSFRLMKMARLLARFLREGRLAVLMEAQCRQQTQPGFILLRETLLGKVVALPDHLGNRLQQENLAEFFPQNYFRLLGEEVVRVLQAVVDSLQGGLDSSVSFVSQVLGKACVHGRQQEILGVLVPRLAALTQGSYLHQRVCWRLVEQVPDRAMEAVLTGLVEAALGPEVLSRLLGNLVVKNKKAQFVMTQKLLFLQSRLTTPMLQSLLGHLAMDSQRRPLLLQVLKELLETWGSSSAIRHTPLPQQRHVSKAVLICLAQLGEPELRDSRDELLASMMAGVKCRLDSSLPPVRRLGMIVAEVVSARIHPEGPPLKFQYEEDELSLELLALASPQPAGDGASEAGTSLVPATAEPPAETPAEIVDGGVPQAQLAGSDSDLDSDDEFVPYDMSGDRELKSSKAPAYVRDCVEALTTSEDIERWEAALRALEGLVYRSPTATREVSVELAKVLLHLEEKTCVVGFAGLRQRALVAVTVTDPAPVADYLTSQFYALNYSLRQRMDILDVLTLAAQELSRPGCLGRTPQPGSPSPNTPCLPEAAVSQPGSAVASDWRVVVEERIRSKTQRLSKGGPRQGPAGSPSRFNSVAGHFFFPLLQRFDRPLVTFDLLGEDQLVLGRLAHTLGALMCLAVNTTVAVAMGKALLEFVWALRFHIDAYVRQGLLSAVSSVLLSLPAARLLEDLMDELLEARSWLADVAEKDPDEDCRTLALRALLLLQRLKNRLLPPASP | 11 | 1 | 1
5 | VAV1 (protein) MELWRQCTHWLIQCRVLPPSHRVTWDGAQVCELAQALRDGVLLCQLLNNLLPHAINLREVNLRPQMSQFLCLKNIRTFLSTCCEKFGLKRSELFEAFDLFDVQDFGKVIYTLSALSWTPIAQNRGIMPFPTEEESVGDEDIYSGLSDQIDDTVEEDEDLYDCVENEEAEGDEIYEDLMRSEPVSMPPKMTEYDKRCCCLREIQQTEEKYTDTLGSIQQHFLKPLQRFLKPQDIEIIFINIEDLLRVHTHFLKEMKEALGTPGAANLYQVFIKYKERFLVYGRYCSQVESASKHLDRVAAAREDVQMKLEECSQRANNGRFTLRDLLMVPMQRVLKYHLLLQELVKHTQEAMEKENLRLALDAMRDLAQCVNEVKRDNETLRQITNFQLSIENLDQSLAHYGRPKIDGELKITSVERRSKMDRYAFLLDKALLICKRRGDSYDLKDFVNLHSFQVRDDSSGDRDNKKWSHMFLLIEDQGAQGYELFFKTRELKKKWMEQFEMAISNIYPENATANGHDFQMFSFEETTSCKACQMLLRGTFYQGYRCHRCRASAHKECLGRVPPCGRHGQDFPGTMKKDKLHRRAQDKKRNELGLPKMEVFQEYYGLPPPPGAIGPFLRLNPGDIVELTKAEAEQNWWEGRNTSTNEIGWFPCNRVKPYVHGPPQDLSVHLWYAGPMERAGAESILANRSDGTFLVRQRVKDAAEFAISIKYNVEVKHIKIMTAEGLYRITEKKAFRGLTELVEFYQQNSLKDCFKSLDTTLQFPFKEPEKRTISRPAVGSTKYFGTAKARYDFCARDRSELSLKEGDIIKILNKKGQQGWWRGEIYGRVGWFPANYVEEDYSEYC | 3 | 1 | 0
